Article PMC13354802

By UniProt entry, the sequences of proteins in these tests, tags left out.
UniProt O00429: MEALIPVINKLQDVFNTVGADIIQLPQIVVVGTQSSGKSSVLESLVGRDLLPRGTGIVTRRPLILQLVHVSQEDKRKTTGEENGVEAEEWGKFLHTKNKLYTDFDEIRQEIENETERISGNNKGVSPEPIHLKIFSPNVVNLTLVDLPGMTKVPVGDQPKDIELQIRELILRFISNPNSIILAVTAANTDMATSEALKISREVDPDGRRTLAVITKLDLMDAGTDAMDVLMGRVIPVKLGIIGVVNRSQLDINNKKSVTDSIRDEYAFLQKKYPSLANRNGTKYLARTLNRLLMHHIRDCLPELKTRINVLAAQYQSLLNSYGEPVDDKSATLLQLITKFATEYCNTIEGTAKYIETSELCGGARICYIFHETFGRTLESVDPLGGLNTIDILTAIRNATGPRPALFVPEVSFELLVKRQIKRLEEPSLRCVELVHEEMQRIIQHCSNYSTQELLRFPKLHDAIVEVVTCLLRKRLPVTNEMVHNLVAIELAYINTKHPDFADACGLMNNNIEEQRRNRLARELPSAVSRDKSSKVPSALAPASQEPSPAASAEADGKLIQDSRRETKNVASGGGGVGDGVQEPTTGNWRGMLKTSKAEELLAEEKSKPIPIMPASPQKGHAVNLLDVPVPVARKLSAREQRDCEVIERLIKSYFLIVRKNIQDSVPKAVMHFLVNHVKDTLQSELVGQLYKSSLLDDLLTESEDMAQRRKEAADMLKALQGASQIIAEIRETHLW

Target: T1, SidC, purified L. pneumophila effector (negative control) (L. pneumophila) (UniProt Q6RCR4)
T1 sequence: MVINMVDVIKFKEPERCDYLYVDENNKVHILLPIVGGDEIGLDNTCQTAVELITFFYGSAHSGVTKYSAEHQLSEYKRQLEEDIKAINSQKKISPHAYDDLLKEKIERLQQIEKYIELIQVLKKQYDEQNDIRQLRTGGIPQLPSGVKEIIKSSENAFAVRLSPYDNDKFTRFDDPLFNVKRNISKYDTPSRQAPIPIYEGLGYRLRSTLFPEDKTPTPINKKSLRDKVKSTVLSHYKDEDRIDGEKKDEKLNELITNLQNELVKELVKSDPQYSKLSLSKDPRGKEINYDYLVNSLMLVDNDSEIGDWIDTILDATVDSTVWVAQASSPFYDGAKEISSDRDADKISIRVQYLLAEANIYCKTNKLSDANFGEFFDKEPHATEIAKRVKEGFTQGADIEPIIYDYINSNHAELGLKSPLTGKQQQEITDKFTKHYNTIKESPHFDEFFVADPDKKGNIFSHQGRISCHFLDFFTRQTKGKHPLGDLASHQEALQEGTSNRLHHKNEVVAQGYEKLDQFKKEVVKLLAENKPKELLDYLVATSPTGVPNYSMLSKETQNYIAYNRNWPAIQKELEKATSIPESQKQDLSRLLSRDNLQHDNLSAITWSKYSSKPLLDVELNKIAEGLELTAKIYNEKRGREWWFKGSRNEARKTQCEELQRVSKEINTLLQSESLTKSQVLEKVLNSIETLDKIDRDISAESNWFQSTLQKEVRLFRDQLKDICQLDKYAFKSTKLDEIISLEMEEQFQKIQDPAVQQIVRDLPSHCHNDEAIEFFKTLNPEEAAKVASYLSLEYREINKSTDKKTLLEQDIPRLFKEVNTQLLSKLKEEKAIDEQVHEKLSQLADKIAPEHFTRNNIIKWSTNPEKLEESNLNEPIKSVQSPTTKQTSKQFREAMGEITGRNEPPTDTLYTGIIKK
Assay: affinity purification with mass spectrometry; only the target purified

dynamin-related protein 1 (Drp1), endogenous in HeLa cell lysate (from UniProt O00429 1-736) (enzyme)
binding: no binding

No constants are given. Whether binding was seen depends on the method and setting. Binding seen in cells or lysates may run through a third protein. Here binding means that the protein was enriched with, or labelled near, the bait; the list need not be complete. A no says only that the protein was not detected with the bait.
